This is an account of results in PubChem BioAssay AID248 (DTP/NCI, 2004).

The list is a part of this screen's results and no random one: it is rich in T/C values a quarter to a half above the control, in often repeated tests (any T/C) and in doses without a T/C. Other doses and runs of a compound stand elsewhere. T/C is the treated group as % of the vehicle group. Some entries give survivors of the animals treated and no T/C: the source holds a T/C of zero for them, seemingly a mark for toxic or unscored doses. Some doses without a T/C left all or most animals alive at the check, yet need not have been tolerated: the source hardly ever lists a survival T/C far under the control, and the zero likely stands for such cases as well. Counts of survivors are from the toxicity check (mostly the fifth day) where no day follows; animals may have died later. Schedule codes are those of the source, read here as Q, the interval in days (D) or hours (H), X, the number of doses. Some schedules carry Z or #; the key to these is not given. Some entries hold several experiments; their values stand side by side, smallest first. Where survival is the endpoint, this PubChem deposit counts one and a half times the control or more as active, and values a quarter to a half above the control carry no call in these data; other NCI protocols may use other cut-offs. Some T/C values carry the count of animals alive at the toxicity check (mostly the fifth day); without a count, all were alive then.

The subject of the experiment is L1210 leukemia ip in BDF1 mice, survival T/C. The experiment can be described thus: NCI In Vivo Anticancer Drug Screen. Data for tumor model L1210 Leukemia (intraperitoneal) in B6D2F1 (BDF1) mice. The settings on record: T/C endpoint: mean survival time, higher T/C = longer survival.
Setting [1] is: dose: 100.0 mg/kg/injection, schedule: Q01DX001 (ip), vehicle: saline.
The mark [2] stands for this setting: dose: 200.0 mg/kg/injection, schedule: Q01DX001 (ip), vehicle: saline.
[3] abbreviates: dose: 400.0 mg/kg/injection, schedule: Q01DX001 (ip), vehicle: saline.
The mark [4] stands for this setting: dose: 400.0 mg/kg/injection, schedule: Q04DX002 (ip), vehicle: Klucel (hydroxypropylcellulose) (HPC).
Setting [5] is: dose: 200.0 mg/kg/injection, schedule: Q04DX003 (ip), vehicle: saline with Tween-80.
The mark [6] stands for this setting: dose: 400.0 mg/kg/injection, schedule: Q04DX003 (ip), vehicle: saline with Tween-80.
[7] abbreviates: dose: 200.0 mg/kg/injection, schedule: Q01DX009 (ip), vehicle: other.
Where [8] appears, read: dose: 100.0 mg/kg/injection, schedule: Q04DX002 (ip), vehicle: Klucel (hydroxypropylcellulose) (HPC).
Where [9] appears, read: dose: 400.0 mg/kg/injection, schedule: Q04DX003 (ip), vehicle: saline.
[10] abbreviates: dose: 60.0 mg/kg/injection, schedule: Q01DX001 (ip), vehicle: carboxymethylcellulose (CMC).
[11] abbreviates: dose: 75.0 mg/kg/injection, schedule: Q01DX001 (ip), vehicle: carboxymethylcellulose (CMC).
Setting [12] is: dose: 150.0 mg/kg/injection, schedule: Q01DX001 (ip), vehicle: carboxymethylcellulose (CMC).
The mark [13] stands for this setting: dose: 300.0 mg/kg/injection, schedule: Q01DX001 (ip), vehicle: carboxymethylcellulose (CMC).
Where [14] appears, read: dose: 100.0 mg/kg/injection, schedule: Q04DX003 (ip), vehicle: saline with Tween-80.

Turning to `CC[N+](C)(C)c1ccccc1`, the survivor count (dose: 100.0 mg/kg/injection, schedule: Q04DX002 (ip), vehicle: saline) is given as 0 of 3; the survivor count (dose: 200.0 mg/kg/injection, schedule: Q04DX002 (ip), vehicle: saline) is 0 of 3; the survivor count (dose: 400.0 mg/kg/injection, schedule: Q04DX002 (ip), vehicle: saline) is 0 of 3.

Regarding `CCCCC(CCCC)NC(C)CO` (centres undefined), the survivor count is, setting by setting: (dose: 150.0 mg/kg/injection, schedule: Q01DX001 (ip), vehicle: saline) 1 of 6; (dose: 300.0 mg/kg/injection, schedule: Q01DX001 (ip), vehicle: saline) 0 of 6.

As for `c1nc([N+]23CCC(CC2)CC3)c2[nH]cnc2n1`, the survivor count under setting [1] is given as 2 of 4, the survivor count under setting [2] is listed as 0 of 4 and the survivor count under setting [3] is 0 of 4.

`O=C(O)CC(CO)C(c1ccccc1)c1ccccc1` (centres undefined): the survivor count under setting [4] was 1 of 3.

Turning to `COC(=O)c1ccc(OC)c2nc3c(C=O)c(OC)cc(OC)c3nc12`, the survivor count is, setting by setting: (dose: 100.0 mg/kg/injection, schedule: Q01DX009 (ip), vehicle: saline with Tween-80) 3 of 6; (dose: 200.0 mg/kg/injection, schedule: Q01DX009 (ip), vehicle: saline with Tween-80) 1 of 6; (dose: 400.0 mg/kg/injection, schedule: Q01DX009 (ip), vehicle: saline with Tween-80) 0 of 6.

Consider `CSc1nc(Cl)c(Br)c(Sc2nc(N)nc3nc[nH]c23)n1`, for which the survivor count (dose: 100.0 mg/kg/injection, schedule: Q01DX Z (ip), vehicle: methylcellulose (MC)) is listed as 3 of 6 and the survivor count (dose: 200.0 mg/kg/injection, schedule: Q01DX Z (ip), vehicle: methylcellulose (MC)) was 6 of 6.

Regarding `COC(=O)C(CCCN(C)C)(CCCN(C)C)c1cccc2ccccc12`, the survivor count is reported as 1 of 6 under setting [5] and 0 of 6 under setting [6].

On to `OCc1ccc(OCc2ccccc2)c(OCc2ccccc2)c1`, for which the survivor count is, setting by setting: under setting [7], 6 of 6; (dose: 400.0 mg/kg/injection, schedule: Q01DX009 (ip), vehicle: other) 3 of 6.

With `COc1ccc(-c2cc3c(OC)ccc(OC)c3[nH]2)cc1OC`, the survivor count under setting [8] is 3 of 3.

For `CC(=Nc1ccccc1)C1=C(O)C(Cc2ccccc2)NC1=O` (centres undefined), the T/C (dose: 400.0 mg/kg/injection, schedule: Q01DX001 (ip), vehicle: carboxymethylcellulose (CMC)) was 134 % of control [3 of 4 alive]. In addition, where the note is “dose: 600.0 mg/kg/injection, schedule: Q01DX001 (ip), vehicle: carboxymethylcellulose (CMC)”, the survivor count is 1 of 4 and 2 of 4.

Regarding `O=C(OCCN1CCCCC1)C(O)C1CCCCC1` (centres undefined), under setting [9], the survivor count was 6 of 6.

Consider `CN(CCN(C)c1ccc(N)cc1)c1ccc(N)cc1`, for which the survivor count is 0 of 6 under setting [1], 0 of 6 under setting [2] and 0 of 6 under setting [3].

On to `O=C(O)C(O)C(=O)O`, for which the survivor count under setting [9] is 2 of 6.

Regarding `CCC1=CC(=O)C(C)=C(C)C1=O`, the survivor count is 0 of 6 (dose: 200.0 mg/kg/injection, schedule: Q04DX003 (ip), vehicle: other) and 0 of 6 (dose: 400.0 mg/kg/injection, schedule: Q04DX003 (ip), vehicle: other).

Turning to `CCCCCCCCCCCCNC(=O)c1ccccc1O`, the survivor count under setting [7] is on record as 3 of 6.

For `N#CC1(N2CCC3(CC2)OCCO3)CCCCC1`, the survivor count was 0 of 6 (dose: 50.0 mg/kg/injection, schedule: Q01DX009 (ip), vehicle: Klucel (hydroxypropylcellulose) (HPC)); 0 of 6 (dose: 50.0 mg/kg/injection, schedule: Q04DX003 (ip), vehicle: Klucel (hydroxypropylcellulose) (HPC)); 0 of 3 under setting [8]; 1 of 3 (dose: 200.0 mg/kg/injection, schedule: Q04DX002 (ip), vehicle: Klucel (hydroxypropylcellulose) (HPC)); 0 of 3 under setting [4].

For the compound `O=C(Nc1ccccc1)Oc1c(Cl)c(Cl)c(Cl)c(Cl)c1Cl`, the survivor count under setting [4] was 0 of 3.

Consider `CC(Br)(c1ccccc1)[P+](c1ccccc1)(c1ccccc1)c1ccccc1` (centres undefined), for which the survivor count is 1 of 6 under setting [10], 0 of 6 under setting [11], 0 of 6 under setting [12] and 0 of 6 under setting [13].

Consider `CC(=O)Nc1ccc(S(N)(=O)=O)cc1`, for which the survivor count is 3 of 3 (dose: 200.0 mg/kg/injection, schedule: Q01DX009 (ip), vehicle: Klucel (hydroxypropylcellulose) (HPC)) and 3 of 3 (dose: 400.0 mg/kg/injection, schedule: Q01DX009 (ip), vehicle: Klucel (hydroxypropylcellulose) (HPC)).

Regarding `C1=C(c2ccccc2)N(C2CCCCC2)C(c2ccccc2)=CN1Cc1ccccc1`, under setting [4], the survivor count is 3 of 3.

Regarding `O=S1(=O)C=C2CCCCC21` (centres undefined), the survivor count was 0 of 6 under setting [12] and 0 of 6 under setting [13].

For `Oc1c(Cl)cc(Cl)c(Cl)c1Cc1c(O)c(Cl)cc(Cl)c1Cl`, the survivor count under setting [14] is given as 0 of 6, the survivor count under setting [5] is on record as 0 of 6 and the survivor count under setting [6] is reported as 0 of 6.

With `O=C(OC(C(=O)O)C(OC(=O)c1ccccc1)C(=O)O)c1ccccc1` (centres undefined) (tested in a mixture with another compound), the survivor count reads like this: (dose: 30.0 mg/kg/injection, schedule: Q01DX001 (ip), vehicle: carboxymethylcellulose (CMC)) 0 of 6; under setting [10], 0 of 6; under setting [11], 0 of 6; under setting [12], 0 of 6; under setting [13], 0 of 6.

Take `Cc1ccc(C(=O)CCN2CCOCC2)cc1C`: the survivor count under setting [9] is 3 of 6.

With `OCC1OC(n2ncc3c(Cl)ccnc32)C(O)C1O` (centres undefined), the survivor count runs as follows: (dose: 100.0 mg/kg/injection, schedule: Q01DX005 (ip), vehicle: other) 2 of 3; (dose: 200.0 mg/kg/injection, schedule: Q01DX005 (ip), vehicle: other) 1 of 3.

For the compound `Nc1nc(-c2ccccc2N=NN2CCCCC2)nc2ccccc12`, the survivor count (dose: 400.0 mg/kg/injection, schedule: Q04DX003 (ip), vehicle: Klucel (hydroxypropylcellulose) (HPC)) is 4 of 6.

As to `CCOc1cc[n+](C)c2ccc(C)cc12`, the survivor count runs as follows: (dose: 25.0 mg/kg/injection, schedule: Q04DX002 (ip), vehicle: saline with Tween-80) 0 of 3; (dose: 50.0 mg/kg/injection, schedule: Q04DX002 (ip), vehicle: saline with Tween-80) 0 of 3; (dose: 100.0 mg/kg/injection, schedule: Q04DX002 (ip), vehicle: saline with Tween-80) 0 of 3.

With `C/C=C/Cn1cnc2c1c(=O)n(C)c(=O)n2C`, the survivor count under setting [6] was 2 of 3.

With `CC1(C)CN(Cc2ccccc2)C(C)(C)CN1N`, the survivor count is 3 of 6 (dose: 50.0 mg/kg/injection, schedule: Q01DX009 (ip), vehicle: saline with Tween-80); 2 of 6 under setting [14]; 0 of 6 under setting [5]; 0 of 6 under setting [6].

For `CCC[CH2][Sn]([CH2]CCC)([CH2]CCC)[S]C(=S)NCCNC(=S)[S][Sn]([CH2]CCC)([CH2]CCC)[CH2]CCC`, the survivor count (dose: 20.0 mg/kg/injection, schedule: Q01DX001 (ip), vehicle: saline) is 1 of 4; the survivor count (dose: 40.0 mg/kg/injection, schedule: Q01DX001 (ip), vehicle: saline) is listed as 2 of 4; the survivor count (dose: 50.0 mg/kg/injection, schedule: Q01DX015 (ip), vehicle: carboxymethylcellulose (CMC)) is listed as 3 of 6; the survivor count (dose: 100.0 mg/kg/injection, schedule: Q01DX015 (ip), vehicle: carboxymethylcellulose (CMC)) is listed as 0 of 6.

Regarding `CCCN=Cc1ccccc1O.CCCN=Cc1ccccc1O.[Ni]`, the survivor count (dose: 300.0 mg/kg/injection, schedule: Q01DX001 (ip), vehicle: other) is 1 of 6.
